# According to PubChem BioAssay AID1487 (National Center for Advancing Translational Sciences (NCATS), 2009):
# Values joined by “and” are separate entries in the source; they are usually repeats but may differ in a detail not shown here. Identical values can stand only once. This is one part of the list. These are further read-outs of the screen, such as a control signal, another cell line or another target. No call is given for them. The list favours compounds with an active or inconclusive main result. Potencies come from curve fits of mixed quality, noted in brackets.
# Test: qHTS Assay for Modulators of Lamin A Splicing
# Settings: HeLa LMNA splicing GFP/RFP minigene ratio, 48 h
# In short: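 Read-out is the ratio of GFP to DsRed2 object intensity, acquired by 488 nm laser-scanning cytometry on HeLa lamin A-EGFP minigene reporter cells. Compound incubation 48 hrs at 37 °C in Opti-MEM with 2% FBS; DMSO 0.5% final.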
# [1] = measured here: GFP splicing reporter channel
# [2] = measured here: RFP viability control channel
Compound,AC50 [1],AC50 [2]
CCOc1ccc(S(=O)(=O)N2CCN(C(=S)NCc3ccco3)CC2)cc1,"15.8 µM [rising, single point]","12.6 µM [rising, partial curve]"
Cc1nc2ccc(NC(=O)c3cccs3)cc2c(=O)n1Cc1ccc(Cl)cc1,,"0.447 µM [rising, full curve]"
CNC(=S)N(C)c1ccccc1,"0.0355 µM [falling, full curve, poor fit]","0.0501 µM [falling, full curve]"
O=C(Nc1ccc(-c2nc3ccccc3[nH]2)cc1)c1ccc(N2C(=O)CCC2=O)cc1,"5.62 µM [rising, single point]",
O=C(Nc1ccccc1)c1cccc(S(=O)(=O)Oc2ccc([N+](=O)[O-])cc2)c1,"11.2 µM [rising, partial curve]","14.1 µM [rising, partial curve]"
Cc1nc(NCCN2CCOCC2)c2nnn(Cc3c(F)cccc3Cl)c2n1,"14.1 µM [rising, partial curve, poor fit]","12.6 µM [rising, single point]"
CC(=O)Nc1ccc(NC(=O)c2cccc(-c3cc4ccccc4oc3=O)c2)cc1,"0.631 µM [falling, full curve]",
CCCCNC(=O)NNC(=O)c1ccc(F)cc1,"4.47 µM [falling, single point]",
CCC(=O)N1c2ccccc2CC1C(=O)NCCc1ccccc1Cl (stereo not given),"0.00355 µM [rising, full curve, poor fit]",
CSCCC(NC(=O)c1ccco1)C(=O)OCC(=O)Nc1sccc1C#N (stereo not given),,"7.08 µM [falling, single point]"
COCCn1c(=O)[nH]c(=O)c2c1nc(-c1ccc(-c3ccc(Cl)cc3[N+](=O)[O-])o1)n2Cc1ccccc1,"35.5 µM [falling, single point]",
COc1ccccc1N1CCN(CCNC(=O)Nc2cccc(C)c2C)CC1,,"14.1 µM [rising, single point]"
CCN(CC)S(=O)(=O)c1ccc(C)c(NC(=O)CSc2nc3ccc(C)cc3[nH]2)c1,"31.6 µM [rising, single point]","35.5 µM [rising, single point]"
CC(C)(C)NC[C@H](O)COc1cccc2c1CCCC2=O,"2.82 µM [falling, single point]",
Cc1cc(C(=O)COc2cccnc2[N+](=O)[O-])c(C)n1-c1ccccc1,"35.5 µM [rising, single point]","35.5 µM [rising, single point]"
Fc1ccc(Sc2nc(-c3ccccc3)nnc2C(F)(F)F)cc1,"35.5 µM [falling, single point]","35.5 µM [falling, single point]"
Cc1ccc(Nc2nc3ccccc3s2)cc1,"7.08 µM [rising, full curve, poor fit]",
CCCC(=O)Nc1ccc2nc(SCC(=O)N3CCCC3)sc2c1,"0.251 µM [falling, full curve, poor fit]",
COc1ccc(NC(=O)N/C=C/c2ccc(Cl)cc2)cc1,,"35.5 µM [rising, single point]"
O=C(COC(=O)CCN1C(=O)c2cccc([N+](=O)[O-])c2C1=O)NC1CCS(=O)(=O)C1 (stereo not given),"17.8 µM [falling, partial curve]","7.94 µM [falling, partial curve]"
CCNc1nc(Oc2c(Cl)cccc2Cl)cc(C(F)(F)F)n1,"35.5 µM [falling, single point]","35.5 µM [falling, single point]"
O=C(Nc1ccccc1)N1N=C(c2cccs2)CC1c1cccs1 (stereo not given),"20 µM [rising, single point]","35.5 µM [rising, single point]"
Cc1nc2nc(SCC(=O)Nc3cccc(Cl)c3)nn2c(C)c1Cc1ccccc1,"15.8 µM [falling, single point]","11.2 µM [falling, partial curve, poor fit]"
CN(C(=O)CSc1nc2ccc(NC(=O)c3ccccc3F)cc2s1)c1ccccc1,"6.31 µM [rising, partial curve]","2 µM [rising, full curve]"
C[N+](C)(C)CCOC(N)=O,"20 nM [falling, full curve, poor fit] and 5.62 µM [falling, partial curve, poor fit]",
COc1ccc2[nH]cc(S(=O)(=O)c3ccc(F)cc3)c(=O)c2c1,,"11.2 µM [rising, single point]"
O=c1c2ccccc2oc2nc3ccn(Cc4ccncc4)c(=O)c3cc12,"3.98 µM [falling, partial curve, poor fit]","2.51 µM [falling, partial curve, poor fit]"
Cc1cc(NC(=O)COc2cccc(Oc3ccccc3)c2)no1,,"14.1 µM [rising, single point]"

Compound,AC50 [1],AC50 [2]
COC(=O)c1cccc(NC(=O)N(C)CCc2c(C)nn(C)c2C)c1,,"8.91 µM [rising, partial curve]"
CCOc1ccc(C2C(=O)N(C3CCCCCC3)CC(=O)N2CCC2=CCCCC2)cc1OC (stereo not given),,"31.6 µM [rising, single point]"
Cc1cc(C)c2c(c1)/C(=N/NC(=O)c1ccc(O)cc1)CCC2,,"3.55 µM [rising, partial curve]"
Cc1ccc(Cl)cc1N1CCN(Cc2nnnn2Cc2ccco2)CC1,"10 µM [rising, partial curve]","12.6 µM [rising, partial curve]"
CNc1ncnc2c1ncn2[C@@H]1O[C@H](CO)[C@H](O)[C@H]1O,,"0.00501 µM [falling, full curve, poor fit]"
COc1ccc2nc(N/C(N)=N/C(=S)Nc3cccc(C)c3)nc(C)c2c1,,"31.6 µM [rising, single point]"
COc1ccc(CN2CCc3nc(Nc4ccccc4)ncc3C2)c(OC)c1OC,"20 µM [falling, single point]",
CCOc1ccc2nc(N3CCC(C(=O)Nc4nnc(CC)s4)CC3)sc2c1,,"3.16 µM [rising, partial curve, poor fit]"
Cc1cc(C)cc(NC(=O)C(=O)NCC(c2ccc3c(c2)OCO3)N2CCOCC2)c1 (stereo not given),,"35.5 µM [rising, partial curve, poor fit]"
COc1ccc(Cl)cc1NC(=O)Nc1cccc([N+](=O)[O-])c1C,"35.5 µM [rising, single point]","35.5 µM [rising, single point]"
Cc1ccc(N2CC(NC(=O)c3ccc(S(=O)(=O)N4CCCC4)cc3)CC2=O)cc1 (stereo not given),"0.0141 µM [falling, full curve, poor fit]","5.01 µM [falling, full curve]"
Cc1ccccc1C1=NC(C(F)(F)F)(C(F)(F)F)c2c(n(-c3ccc(F)cc3)c(=O)[nH]c2=O)N1,,"5.62 µM [falling, full curve]"
O=C(CCCc1ccccc1)Nc1nnc(C(F)(F)F)s1,"20 µM [falling, partial curve]",
O=c1c2nccnc2[nH]c(=S)n1Cc1ccccc1Cl,,"0.0112 µM [falling, full curve, poor fit]"
CCOC(=O)c1c(NC(=O)CSc2n[nH]c(-c3ccco3)n2)sc(C)c1C,,"35.5 µM [rising, single point]"
COc1ccc(CC(=O)N2CCC(c3ccccc3)C2)cc1 (stereo not given),"2.82 µM [rising, single point]","0.00891 µM [rising, full curve, poor fit]"
COc1cccc(/C=C/C(=O)c2cccc([N+](=O)[O-])c2)c1,"17.8 µM [falling, partial curve]","17.8 µM [falling, partial curve]"
CCCCNS(=O)(=O)c1ccc(NC(=O)Cc2ccc(OC)cc2)cc1,"0.0126 µM [falling, full curve, poor fit]",
O=C(COc1ccc([N+](=O)[O-])cc1)NCC1(N2CCOCC2)CCCCC1,"39.8 µM [rising, single point]",
COCCNc1ncnc2ccc(-c3ccccc3OC)cc12,"11.2 µM [falling, partial curve, poor fit]","17.8 µM [falling, single point]"
COc1ccc(NCc2nc3ccccc3n2CCOc2ccccc2)cc1,,"14.1 µM [rising, single point]"
Cc1cnc(CNc2ncnc3ccc(-c4c(C)noc4C)cc23)cn1,"5.01 µM [falling, partial curve]",
Cc1cc(=O)[nH]c(/N=C(\N)Nc2ccc3c(c2)OCCO3)n1,"0.00708 µM [falling, full curve, poor fit]","0.01 µM [falling, full curve, poor fit]"
CC(C)c1ccc(NC(=O)C2CCN(c3nc(-c4ccc(C(C)C)cc4)no3)CC2)cc1,,"3.55 µM [falling, single point]"
C/C(N)=C(/C#N)C(=O)COC(=O)c1cc(-c2ccc(Br)cc2)nc2ccccc12,"0.0282 µM [falling, full curve]",
Cc1ccc(NC(=O)c2cn3c4c(ccc(Cl)c4c2=O)OC(C)C3)c(C)c1 (stereo not given),"10 µM [falling, partial curve]",
COC(=O)[C@@]1(Cc2ccc(OC)cc2)[C@H]2c3cc(C(=O)N(C)C)[nH]c3C[C@H]2CN1C(=O)c1ccccc1,,"2.51 µM [falling, partial curve, poor fit]"
